Data taken from patent publication US20250325682A1 (priority 2024, published 2025).

Test: Fmoc solid-phase peptide synthesis; MBHA resin (0.58 mmol/g) for Boc; low loading ChemMatrix resin (0.22 mmol/g) for Fmoc; HBTU/DIPEA (Boc); DIC/Oxyma (Fmoc)
Conditions: whole synthesis, scale of the general procedure 0.1 mmol, TFA

In the case of “AcAKPNEGAIVEVALEGYYKDKLFDQRELRFEIGEGENLDLPYGLERAIQRM-NH2 (listed as Homo sapiens)”, the outcome is reported as “Standard Fmoc synthesis of P50 was unsuccessful with coupling failing after about 15 amino acid residues”.
